# Measurements from article PMC8384837.
# Substitutions are numbered along the chain they refer to. The list shows a part of the results. For some assays here: At the low end of the ranking the order means little. For some assays here: Construct or isoform of the protein are uncertain.
# What was measured:
# Conditions in all cases: yeast three-hybrid, YBZ-1, SC-Leu-His + 0.5 mM 3-AT, 4 days
# [1] = molecular target: T1, PUM1 PUF domain R2-VFQ R3-THE R4-TFR N899V + Y900F + C935T + R936H + Q939E + N971T + H972F + Q975R (UniProt Q14671)
# T1 sequence: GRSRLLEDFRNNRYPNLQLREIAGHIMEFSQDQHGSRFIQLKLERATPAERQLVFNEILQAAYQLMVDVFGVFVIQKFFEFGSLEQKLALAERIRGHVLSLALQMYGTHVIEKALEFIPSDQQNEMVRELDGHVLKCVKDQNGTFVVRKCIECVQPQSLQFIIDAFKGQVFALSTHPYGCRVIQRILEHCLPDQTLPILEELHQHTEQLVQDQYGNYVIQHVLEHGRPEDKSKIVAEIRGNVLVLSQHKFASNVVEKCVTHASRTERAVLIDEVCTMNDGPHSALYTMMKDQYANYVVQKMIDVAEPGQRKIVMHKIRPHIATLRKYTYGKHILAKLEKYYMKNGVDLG
# [2] = molecular target: T2, PUM1 PUF domain R5-PHQ R6-SWD C1007P + R1008H + N1043S + Y1044W + Q1047D (UniProt Q14671)
# T2 sequence: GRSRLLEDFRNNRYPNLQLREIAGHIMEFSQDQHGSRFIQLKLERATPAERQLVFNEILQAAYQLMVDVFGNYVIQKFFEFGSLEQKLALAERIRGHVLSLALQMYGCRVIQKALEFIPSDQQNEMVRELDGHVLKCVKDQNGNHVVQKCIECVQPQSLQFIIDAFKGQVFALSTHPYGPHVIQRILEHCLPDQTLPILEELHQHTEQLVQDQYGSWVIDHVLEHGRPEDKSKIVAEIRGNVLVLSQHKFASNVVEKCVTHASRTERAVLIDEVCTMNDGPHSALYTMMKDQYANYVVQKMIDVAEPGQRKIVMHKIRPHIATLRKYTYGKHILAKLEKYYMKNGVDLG
# [3] = molecular target: T3, PUM1 PUF domain R6-SWD R7-NPG N1043S + Y1044W + Q1047D + S1079N + N1080P + E1083G (Homo sapiens) (UniProt Q14671)
# T3 sequence: T2 sequence with P180C, H181R, S252N, N253P, E256G
# [4] = molecular target: T4, PUM1 PUF domain R6-SWD R7-NPG N1043S + Y1044W + Q1047D + S1079N + N1080P + E1083G (UniProt Q14671)
# T4 sequence: T2 sequence with P180C, H181R, S252N, N253P, E256G
# [5] = molecular target: T5, PUM1 PUF domain R3-THE R4-TFR C935T + R936H + Q939E + N971T + H972F + Q975R (UniProt Q14671)
# T5 sequence: T1 sequence with V72N, F73Y
# [6] = molecular target: T6, PUM1 PUF domain R3-THE R4-TFR R7-NPG C935T + R936H + Q939E + N971T + H972F + Q975R + S1079N + N1080P + E1083G (UniProt Q14671)
# T6 sequence: T1 sequence with V72N, F73Y, S252N, N253P, E256G
# [7] = molecular target: T7, PUM1 PUF domain R3-THE R4-TFR R7-NPG C935T + R936H + Q939E + N971T + H972F + Q975R + S1079N + N1080P + E1083G (Homo sapiens) (UniProt Q14671)
# T7 sequence: T1 sequence with V72N, F73Y, S252N, N253P, E256G
sequence,measurement,setting,value
GGCUAGAACUAGUGGAUCCCCCGGCGCCCGGCGGCUCGAGCCCGGGUAAGUAGAGAUUGUCUGCAUGCCGCCGGGCGCCAUGCCUGCAGGUCGACUCUAGAAAACAUG,binding signal (log2 enrichment (interaction score)),[1],-5.62
same,binding signal (log2 enrichment (interaction score)),[2],-7.82
same,binding signal (log2 enrichment (interaction score)),[3],-0.32
GGCUAGAACUAGUGGAUCCCCCGGCGCCCGGCGGCUCGAGCCCGGGUAAGUUGUAGGAGUCUGCAUGCCGCCGGGCGCCAUGCCUGCAGGUCGACUCUAGAAAACAUG,binding signal (log2 enrichment (interaction score)),[1],-5.29
same,binding signal (log2 enrichment (interaction score)),[2],-6.94
GGCUAGAACUAGUGGAUCCCCCGGCGCCCGGCGGCUCGAGCCCGGGUAAGUUGAUCAUGUCUGCAUGCCGCCGGGCGCCAUGCCUGCAGGUCGACUCUAGAAAACAUG,binding signal (log2 enrichment (interaction score)),[1],-5.2
same,binding signal (log2 enrichment (interaction score)),[3],-0.91
GGCUAGAACUAGUGGAUCCCCCGGCGCCCGGCGGCUCGAGCCCGGGUAAGAGAAAAACGUCUGCAUGCCGCCGGGCGCCAUGCCUGCAGGUCGACUCUAGAAAACAUG,binding signal (log2 enrichment (interaction score)),[1],-6.01
same,binding signal (log2 enrichment (interaction score)),[2],< -7.54
same,binding signal (log2 enrichment (interaction score)),[4],-2.39
GGCUAGAACUAGUGGAUCCCCCGGCGCCCGGCGGCUCGAGCCCGGGUAAGUUCCAGAAGUCUGCAUGCCGCCGGGCGCCAUGCCUGCAGGUCGACUCUAGAAAACAUG,binding signal (log2 enrichment (interaction score)),[1],-5.45
same,binding signal (log2 enrichment (interaction score)),[3],-1.6
GGCUAGAACUAGUGGAUCCCCCGGCGCCCGGCGGCUCGAGCCCGGGUAAGAGGAGAGCGUCUGCAUGCCGCCGGGCGCCAUGCCUGCAGGUCGACUCUAGAAAACAUG,binding signal (log2 enrichment (interaction score)),[1],-5.7
same,binding signal (log2 enrichment (interaction score)),[2],-8.09
same,binding signal (log2 enrichment (interaction score)),[3],-0.61
GGCUAGAACUAGUGGAUCCCCCGGCGCCCGGCGGCUCGAGCCCGGGUAAGUUGAACUCGUCUGCAUGCCGCCGGGCGCCAUGCCUGCAGGUCGACUCUAGAAAACAUG,binding signal (log2 enrichment (interaction score)),[1],-5.03
same,binding signal (log2 enrichment (interaction score)),[2],-9.02
same,binding signal (log2 enrichment (interaction score)),[4],-2.32
GGCUAGAACUAGUGGAUCCCCCGGCGCCCGGCGGCUCGAGCCCGGGUAAGUGGACAACGUCUGCAUGCCGCCGGGCGCCAUGCCUGCAGGUCGACUCUAGAAAACAUG,binding signal (log2 enrichment (interaction score)),[1],-4.24
same,binding signal (log2 enrichment (interaction score)),[2],-6.83
GGCUAGAACUAGUGGAUCCCCCGGCGCCCGGCGGCUCGAGCCCGGGUAAGUCUGCGAUGUCUGCAUGCCGCCGGGCGCCAUGCCUGCAGGUCGACUCUAGAAAACAUG,binding signal (log2 enrichment (interaction score)),[5],-7.67
same,binding signal (log2 enrichment (interaction score)),[6],< -2.06
GGCUAGAACUAGUGGAUCCCCCGGCGCCCGGCGGCUCGAGCCCGGGUAAGAUCACGUAGUCUGCAUGCCGCCGGGCGCCAUGCCUGCAGGUCGACUCUAGAAAACAUG,binding signal (log2 enrichment (interaction score)),[5],-7.29
same,binding signal (log2 enrichment (interaction score)),[6],-3.11
GGCUAGAACUAGUGGAUCCCCCGGCGCCCGGCGGCUCGAGCCCGGGUAAGUAGACGUAGUCUGCAUGCCGCCGGGCGCCAUGCCUGCAGGUCGACUCUAGAAAACAUG,binding signal (log2 enrichment (interaction score)),[5],-7.04
same,binding signal (log2 enrichment (interaction score)),[7],-0.65
GGCUAGAACUAGUGGAUCCCCCGGCGCCCGGCGGCUCGAGCCCGGGUAAGUUUCCAUCGUCUGCAUGCCGCCGGGCGCCAUGCCUGCAGGUCGACUCUAGAAAACAUG,binding signal (log2 enrichment (interaction score)),[5],-6.84
same,binding signal (log2 enrichment (interaction score)),[7],-1.92
GGCUAGAACUAGUGGAUCCCCCGGCGCCCGGCGGCUCGAGCCCGGGUAAGUUUACUUCGUCUGCAUGCCGCCGGGCGCCAUGCCUGCAGGUCGACUCUAGAAAACAUG,binding signal (log2 enrichment (interaction score)),[5],< -7.69
same,binding signal (log2 enrichment (interaction score)),[6],-2.32
GGCUAGAACUAGUGGAUCCCCCGGCGCCCGGCGGCUCGAGCCCGGGUAAGGCUACACCGUCUGCAUGCCGCCGGGCGCCAUGCCUGCAGGUCGACUCUAGAAAACAUG,binding signal (log2 enrichment (interaction score)),[5],-6.66
same,binding signal (log2 enrichment (interaction score)),[6],-2.09
GGCUAGAACUAGUGGAUCCCCCGGCGCCCGGCGGCUCGAGCCCGGGUAAGUGGCUUAAGUCUGCAUGCCGCCGGGCGCCAUGCCUGCAGGUCGACUCUAGAAAACAUG,binding signal (log2 enrichment (interaction score)),[5],-7.15
GGCUAGAACUAGUGGAUCCCCCGGCGCCCGGCGGCUCGAGCCCGGGUAAGUGUGCAACGUCUGCAUGCCGCCGGGCGCCAUGCCUGCAGGUCGACUCUAGAAAACAUG,binding signal (log2 enrichment (interaction score)),[5],-7.81
same,binding signal (log2 enrichment (interaction score)),[7],-1.6
GGCUAGAACUAGUGGAUCCCCCGGCGCCCGGCGGCUCGAGCCCGGGUAAGUUGUCUUAGUCUGCAUGCCGCCGGGCGCCAUGCCUGCAGGUCGACUCUAGAAAACAUG,binding signal (log2 enrichment (interaction score)),[5],-7.03
same,binding signal (log2 enrichment (interaction score)),[7],-1.13
same,binding signal (log2 enrichment (interaction score)),[3],-0.85
GGCUAGAACUAGUGGAUCCCCCGGCGCCCGGCGGCUCGAGCCCGGGUAAGCUAACUUAGUCUGCAUGCCGCCGGGCGCCAUGCCUGCAGGUCGACUCUAGAAAACAUG,binding signal (log2 enrichment (interaction score)),[5],-6.83
same,binding signal (log2 enrichment (interaction score)),[7],< -0.62
same,binding signal (log2 enrichment (interaction score)),[4],< -2.19
GGCUAGAACUAGUGGAUCCCCCGGCGCCCGGCGGCUCGAGCCCGGGUAAGCGAAGCUCGUCUGCAUGCCGCCGGGCGCCAUGCCUGCAGGUCGACUCUAGAAAACAUG,binding signal (log2 enrichment (interaction score)),[5],-6.12
same,binding signal (log2 enrichment (interaction score)),[7],-1.01
GGCUAGAACUAGUGGAUCCCCCGGCGCCCGGCGGCUCGAGCCCGGGUAAGCGUGGAUUGUCUGCAUGCCGCCGGGCGCCAUGCCUGCAGGUCGACUCUAGAAAACAUG,binding signal (log2 enrichment (interaction score)),[5],< -7.96
same,binding signal (log2 enrichment (interaction score)),[6],< -2.07
GGCUAGAACUAGUGGAUCCCCCGGCGCCCGGCGGCUCGAGCCCGGGUAAGUGUCAGACGUCUGCAUGCCGCCGGGCGCCAUGCCUGCAGGUCGACUCUAGAAAACAUG,binding signal (log2 enrichment (interaction score)),[5],-7.38
same,binding signal (log2 enrichment (interaction score)),[7],< -0.17
GGCUAGAACUAGUGGAUCCCCCGGCGCCCGGCGGCUCGAGCCCGGGUAAGAGUAAGUAGUCUGCAUGCCGCCGGGCGCCAUGCCUGCAGGUCGACUCUAGAAAACAUG,binding signal (log2 enrichment (interaction score)),[5],-6.3
same,binding signal (log2 enrichment (interaction score)),[7],-1.53
same,binding signal (log2 enrichment (interaction score)),[2],< -7.29

# Quoted at random: three records from the list.
sequence,measurement,setting,value
GGCUAGAACUAGUGGAUCCCCCGGCGCCCGGCGGCUCGAGCCCGGGUAAGUUUCCAUCGUCUGCAUGCCGCCGGGCGCCAUGCCUGCAGGUCGACUCUAGAAAACAUG,binding signal (log2 enrichment (interaction score)),[7],-1.92
GGCUAGAACUAGUGGAUCCCCCGGCGCCCGGCGGCUCGAGCCCGGGUAAGGCUACACCGUCUGCAUGCCGCCGGGCGCCAUGCCUGCAGGUCGACUCUAGAAAACAUG,binding signal (log2 enrichment (interaction score)),[6],-2.09
GGCUAGAACUAGUGGAUCCCCCGGCGCCCGGCGGCUCGAGCCCGGGUAAGCUAACUUAGUCUGCAUGCCGCCGGGCGCCAUGCCUGCAGGUCGACUCUAGAAAACAUG,binding signal (log2 enrichment (interaction score)),[7],< -0.62
